Measured values: publication doi:10.1101/2020.12.08.415711
These are yes or no findings as the source states them, for the method shown. In cells and extracts the contact can be indirect. A yes stands for co-enrichment or nearness to the bait. Other partners may have been found.

Sequences of proteins named here, by UniProt entry; tags and fusion partners are left off. A change or cut given only in a name is not applied to a line headed by its entry.
UniProt Q9SXA1: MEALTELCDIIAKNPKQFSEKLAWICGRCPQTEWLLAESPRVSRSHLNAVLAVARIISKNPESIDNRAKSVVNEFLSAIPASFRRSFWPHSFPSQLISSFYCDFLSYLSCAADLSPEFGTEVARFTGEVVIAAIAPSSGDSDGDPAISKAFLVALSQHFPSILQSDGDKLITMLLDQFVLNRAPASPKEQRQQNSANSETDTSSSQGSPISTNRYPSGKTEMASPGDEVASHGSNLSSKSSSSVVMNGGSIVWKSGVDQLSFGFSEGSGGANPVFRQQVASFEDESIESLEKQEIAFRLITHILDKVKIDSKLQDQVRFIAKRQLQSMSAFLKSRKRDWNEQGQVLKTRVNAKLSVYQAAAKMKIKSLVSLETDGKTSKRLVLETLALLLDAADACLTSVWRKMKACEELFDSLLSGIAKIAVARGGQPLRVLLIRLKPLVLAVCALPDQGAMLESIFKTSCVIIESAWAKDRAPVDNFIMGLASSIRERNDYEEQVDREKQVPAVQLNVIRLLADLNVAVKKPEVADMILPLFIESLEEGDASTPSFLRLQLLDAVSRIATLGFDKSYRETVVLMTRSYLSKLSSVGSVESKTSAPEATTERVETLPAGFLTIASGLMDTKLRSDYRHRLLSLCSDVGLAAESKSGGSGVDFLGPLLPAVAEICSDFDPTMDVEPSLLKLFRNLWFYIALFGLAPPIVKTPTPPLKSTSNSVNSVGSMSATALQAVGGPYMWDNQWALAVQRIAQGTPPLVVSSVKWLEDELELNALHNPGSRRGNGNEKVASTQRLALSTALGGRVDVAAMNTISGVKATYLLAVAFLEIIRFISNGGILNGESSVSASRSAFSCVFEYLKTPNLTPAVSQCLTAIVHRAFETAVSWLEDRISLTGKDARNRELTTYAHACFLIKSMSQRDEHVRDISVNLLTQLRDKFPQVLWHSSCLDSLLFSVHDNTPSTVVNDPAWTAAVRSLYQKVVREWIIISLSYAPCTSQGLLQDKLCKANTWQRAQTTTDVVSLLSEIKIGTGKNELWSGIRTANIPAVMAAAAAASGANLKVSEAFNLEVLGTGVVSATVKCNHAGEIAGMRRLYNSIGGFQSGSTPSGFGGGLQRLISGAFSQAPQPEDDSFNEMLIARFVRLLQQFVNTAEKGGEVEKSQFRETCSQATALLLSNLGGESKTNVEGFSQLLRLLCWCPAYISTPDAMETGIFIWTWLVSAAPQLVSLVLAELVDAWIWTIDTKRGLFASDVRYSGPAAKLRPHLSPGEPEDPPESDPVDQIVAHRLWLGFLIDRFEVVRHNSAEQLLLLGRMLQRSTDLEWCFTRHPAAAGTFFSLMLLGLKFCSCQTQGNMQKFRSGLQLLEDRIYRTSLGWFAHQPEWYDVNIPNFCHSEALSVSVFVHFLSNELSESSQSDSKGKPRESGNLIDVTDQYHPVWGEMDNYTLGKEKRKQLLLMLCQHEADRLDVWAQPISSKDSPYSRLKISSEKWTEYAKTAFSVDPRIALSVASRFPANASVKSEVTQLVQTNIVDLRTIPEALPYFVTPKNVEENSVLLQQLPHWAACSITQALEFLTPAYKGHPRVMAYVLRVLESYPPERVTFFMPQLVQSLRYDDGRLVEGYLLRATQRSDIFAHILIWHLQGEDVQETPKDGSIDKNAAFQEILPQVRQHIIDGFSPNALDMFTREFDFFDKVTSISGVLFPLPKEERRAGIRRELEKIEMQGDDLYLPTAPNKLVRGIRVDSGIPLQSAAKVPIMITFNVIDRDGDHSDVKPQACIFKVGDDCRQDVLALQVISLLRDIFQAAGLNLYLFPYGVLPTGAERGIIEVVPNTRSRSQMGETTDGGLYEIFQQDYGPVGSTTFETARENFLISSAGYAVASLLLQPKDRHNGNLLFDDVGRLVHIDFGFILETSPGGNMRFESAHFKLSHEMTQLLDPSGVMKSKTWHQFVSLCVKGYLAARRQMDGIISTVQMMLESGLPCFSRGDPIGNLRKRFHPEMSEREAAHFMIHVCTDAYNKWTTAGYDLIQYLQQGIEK
UniProt Q9FMI8: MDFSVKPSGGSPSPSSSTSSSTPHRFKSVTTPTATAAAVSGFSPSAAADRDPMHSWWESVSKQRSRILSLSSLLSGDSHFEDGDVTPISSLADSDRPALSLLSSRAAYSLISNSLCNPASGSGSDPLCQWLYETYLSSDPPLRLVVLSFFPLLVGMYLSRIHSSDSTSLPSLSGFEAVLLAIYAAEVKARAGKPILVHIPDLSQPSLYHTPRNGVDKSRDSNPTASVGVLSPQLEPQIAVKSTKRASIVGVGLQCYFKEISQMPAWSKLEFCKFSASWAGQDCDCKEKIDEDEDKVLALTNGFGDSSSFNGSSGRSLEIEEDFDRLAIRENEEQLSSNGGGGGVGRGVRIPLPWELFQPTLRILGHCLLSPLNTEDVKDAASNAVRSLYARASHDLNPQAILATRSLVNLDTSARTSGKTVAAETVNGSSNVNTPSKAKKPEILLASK

Assays:
[1] = molecular target: mCITRINE-PI4Kα1 (Arabidopsis thaliana) (UniProt Q9SXA1); test: affinity purification with mass spectrometry
[2] = molecular target: T1, NPGR2-mCITRINE (Arabidopsis thaliana) (UniProt Q66GN3); test: affinity purification with mass spectrometry
T1 sequence: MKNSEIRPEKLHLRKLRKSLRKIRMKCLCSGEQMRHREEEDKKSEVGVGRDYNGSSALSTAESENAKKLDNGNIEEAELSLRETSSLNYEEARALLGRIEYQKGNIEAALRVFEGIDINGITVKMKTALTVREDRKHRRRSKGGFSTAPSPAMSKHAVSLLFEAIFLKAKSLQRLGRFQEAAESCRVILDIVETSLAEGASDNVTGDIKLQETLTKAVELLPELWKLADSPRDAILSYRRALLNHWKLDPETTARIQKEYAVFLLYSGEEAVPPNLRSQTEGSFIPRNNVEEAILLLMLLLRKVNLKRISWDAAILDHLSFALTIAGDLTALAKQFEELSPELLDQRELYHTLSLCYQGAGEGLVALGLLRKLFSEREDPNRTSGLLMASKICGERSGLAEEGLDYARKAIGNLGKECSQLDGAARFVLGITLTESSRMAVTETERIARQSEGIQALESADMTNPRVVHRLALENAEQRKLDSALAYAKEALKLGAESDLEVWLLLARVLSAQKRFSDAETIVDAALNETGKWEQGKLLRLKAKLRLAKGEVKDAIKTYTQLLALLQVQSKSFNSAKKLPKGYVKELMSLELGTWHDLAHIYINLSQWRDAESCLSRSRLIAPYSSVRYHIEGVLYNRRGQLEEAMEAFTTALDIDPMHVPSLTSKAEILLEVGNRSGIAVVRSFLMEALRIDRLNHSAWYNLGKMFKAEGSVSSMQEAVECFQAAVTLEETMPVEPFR

Substance	binding [1]	binding [2]
HYCCIN-CONTAINING2 (HYC2), endogenous (from UniProt Q9FMI8)	binds	binds
PI4Kα1, endogenous (from UniProt Q9SXA1 1-2028) (enzyme)		binds
